This data set is described as follows: Acid generation rate on 365 nm UV irradiation, titration with KOH. The settings on record: 100 mW/cm^2, 0.5%-by-mass in acetonitrile/water 9/1. As to the method:
For each of Compound Nos. 4, 7, 10 and 20 as well as Comparative Compound 1, a 0.5%-by-mass acetonitrile/water mixed solution (volume ratio: acetonitrile/water =9/1) was prepared, and 5.0 g thereof was placed in a Petri dish having an inner diameter of 50 mm. Using a UV lamp and a cut filter transmitting only light having a wavelength of about 365 nm, which are manufactured by Hoya Candeo Optronics Corporation, the mixed solution was irradiated with UV having an intensity of 100 mW/cm^2. The irradiation time was 10 seconds, 30 seconds and 60 seconds for each solution. After the irradiation, the resultant was diluted with 45 g of acetonitrile/water mixed solution (volume ratio: acetonitrile/water=9/1) and then titrated with 0.1 N aqueous potassium hydroxide solution using an automatic titrator manufactured by Hiranuma Sangyo Co., Ltd. (COM-1600). The acid concentration was determined from the used volume and the acid generation rate (mol %) was calculated therefrom.

Take `CCCCc1ccc2c3c(cccc13)C(=O)N(OS(=O)(=O)C(F)(F)F)C2=O` [Compound No. 4]: the acid generation rate was determined as 28.3 mol % (10 seconds irradiation), 57.4 mol % (30 seconds irradiation) and 59.0 mol % (60 seconds irradiation).
As for `CC1(C)C2CCC1(CS(=O)(=O)ON1C(=O)c3cccc4cccc(c34)C1=O)C(=O)C2` (centres unmarked) [Comparative Compound 1, reference compound], the acid generation rate is, setting by setting: (30 seconds irradiation) 2.2 mol %; (60 seconds irradiation) 6.6 mol %.
For the molecule `CCCCCCCCCCCCCCc1ccc2c3c(cccc13)C(=O)N(OS(=O)(=O)c1ccc(C)cc1)C2=O` [Compound No. 40], the acid generation rate is 9.9 mol % (10 seconds irradiation), 17.4 mol % (30 seconds irradiation) and 18.3 mol % (60 seconds irradiation).
On to `CCCCc1ccc2c3c(cccc13)C(=O)N(OS(=O)(=O)CC13CCC(CC1=O)C3(C)C)C2=O` (centres unmarked) [Compound No. 10], for which the acid generation rate entry by setting is: (10 seconds irradiation) “so small that the measurement could not be performed”; (30 seconds irradiation) 0.3 mol %; (60 seconds irradiation) 0.9 mol %.
Regarding `CCCCC(CC)Cc1ccc2c3c(cccc13)C(=O)N(OS(=O)(=O)c1ccc(C)cc1)C2=O` (centres unmarked) [Compound No. 38], the acid generation rate (10 seconds irradiation) amounted to 13.4 mol %, the acid generation rate (30 seconds irradiation) was determined as 14.3 mol % and the acid generation rate (60 seconds irradiation) amounted to 16.4 mol %.
For `CCCCc1ccc2c3c(cccc13)C(=O)N(OS(=O)(=O)c1ccc(C)cc1)C2=O` [Compound No. 6], the acid generation rate by setting is: (10 seconds irradiation) 18.1 mol %; (30 seconds irradiation) 18.3 mol %; (60 seconds irradiation) 20.1 mol %.
With `CCCCc1ccc2c3c(cccc13)C(=O)N(OS(=O)(=O)c1c(C(C)C)cc(C(C)C)cc1C(C)C)C2=O` [Compound No. 7], the acid generation rate by setting is: (10 seconds irradiation) 0.4 mol %; (30 seconds irradiation) 1.1 mol %; (60 seconds irradiation) 1.6 mol %.
In the same order, the values of `CCc1ccc2c3c(cccc13)C(=O)N(OS(=O)(=O)C(F)(F)F)C2=O` [Compound No. 20] are 29.1 mol %, 47.7 mol % and 65.5 mol %.
In turn, `CCCCc1ccc2c3c(cccc13)C(=O)N(OS(=O)(=O)c1ccc(C(F)(F)F)cc1)C2=O` [Compound No. 35] registered an acid generation rate (10 seconds irradiation) of 4.1 mol %, an acid generation rate (30 seconds irradiation) of 6.8 mol % and an acid generation rate (60 seconds irradiation) of 11.1 mol %.

(Values after patent US20150315153A1, “NOVEL SULFONIC ACID DERIVATIVE COMPOUND, PHOTOACID GENERATOR, CATIONIC POLYMERIZATION INITIATOR, RESIST COMPOSITION, AND CATIONICALLY POLYMERIZABLE COMPOSITION” (ADEKA CORPORATION, priority 2012, published 2015).)
